Measured data: PubChem BioAssay AID686943 (Drosophila RNAi Screening Center, 2013)
The screen tested about 23,000 reagents; this is a random part of those with a known target gene and a result. 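Extra replicates exist only for a retested subset of genes; insulin dose and duration not given; both raised and lowered dpERK matter.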 Reagents against one gene are numbered here. A plus sign joins genes that one reagent is predicted to hit. Not stated in the record: the amount of reagent, the time to read-out.

Aim: 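Knockdowns that increase or decrease active ERK after insulin receptor stimulation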 (primary screen)
System: Drosophila S2R+ haemocyte-like cells expressing YFP-tagged ERK (Rolled)
Reagents: long dsRNA against Drosophila genes
Treatment: insulin stimulation versus unstimulated cells; dose and duration not given
Detection: 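Antibody staining for doubly phosphorylated ERK divided by ERK-YFP signal, as plate z-scores, in insulin-treated and untreated cells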
Direction: replicate 1, z-score of dpERK with insulin and replicate 2, z-score of dpERK with insulin: higher = more active ERK per ERK-YFP after insulin; replicate 1, z-score of dpERK under basal conditions: higher = more basal active ERK per ERK-YFP; replicate 1, z-score of ERK-YFP with insulin: higher = more YFP-tagged ERK signal

The opening 6 records as a preview:
| target | reagent no. | replicate 1, z-score of dpERK with insulin | replicate 2, z-score of dpERK with insulin | replicate 1, z-score of dpERK under basal conditions | replicate 1, z-score of ERK-YFP with insulin |
| --- | --- | --- | --- | --- | --- |
| I-t | 1 | -0.4 | 0.05 | 0.17 | -0.32 |
| COX4 | 1 | -0.76 | 0.43 | -0.97 | 3.03 |
| TMEM216 | 1 | 0.05 | 1.34 | -0.26 | 0.26 |
| lncRNA:CR32661 + lncRNA:CR43157 | 1 | 0.61 | 0.04 | 0.13 | 0.47 |
| CG4716 | 1 | -0.16 | -0.22 | 0 | 0.21 |
| CG18508 | 1 | 0.94 | 0.9 | 0.76 | -0.12 |

Main list, from the start:
| target | reagent no. | replicate 1, z-score of dpERK with insulin | replicate 2, z-score of dpERK with insulin | replicate 1, z-score of dpERK under basal conditions | replicate 1, z-score of ERK-YFP with insulin |
| --- | --- | --- | --- | --- | --- |
| I-t | 1 | -0.4 | 0.05 | 0.17 | -0.32 |
| COX4 | 1 | -0.76 | 0.43 | -0.97 | 3.03 |
| TMEM216 | 1 | 0.05 | 1.34 | -0.26 | 0.26 |
| lncRNA:CR32661 + lncRNA:CR43157 | 1 | 0.61 | 0.04 | 0.13 | 0.47 |
| CG4716 | 1 | -0.16 | -0.22 | 0 | 0.21 |
| CG18508 | 1 | 0.94 | 0.9 | 0.76 | -0.12 |
| CG15531 | 1 | -0.51 | 0 | 1.2 | 1.37 |
| CG14683 | 1 | -0.18 | 0.12 | -0.3 | 0.59 |
| CG44838 | 1 | -2.76 | -4.71 | -1.57 | -3.39 |
| CG44838 | 2 | 0.41 | 0 | 0.01 | -0.44 |
| CG8526 | 1 | 1.12 | 0.78 | -0.73 | 0.31 |
| dap | 1 | 1.61 | 0.93 | 0.59 | 0.71 |
| CG18641 | 1 | 0.32 | -0.75 | 0.41 | -0.86 |
| CG7304 | 1 | 0.62 | -0.08 | 0.73 | 0.02 |
| CG5282 | 1 | 0.63 | -0.22 | 0.67 | 0.12 |
| tou | 1 | 0.09 | -0.31 | 0.8 | 0.16 |
| tou | 2 | 0.41 | -0.57 | -1.1 | -1.1 |
| CG1231 | 1 | 1.94 | 3.28 | 1.86 | -4.93 |
| Or94b | 1 | -0.85 | 0 | 0.09 | 0.02 |
| CG30428 | 1 | -1.85 | -0.39 | -0.77 | 1.37 |
| Zpr1 | 1 | -0.46 | -1.04 | 0.13 | 0.21 |
| CG1371 | 1 | 0.79 | -0.38 | 0.11 | 0.39 |
| TORIP | 1 | 0.04 | -0.39 | 0 | 0.17 |
| CG5382 | 1 | 0.09 | -0.9 | -0.25 | -0.12 |
| Gbp1 | 1 | -0.18 | 0.32 | -0.17 | 0.22 |
| Fie | 1 | 1.36 | -0.43 | 0.61 | -0.6 |
| tbrd-3 | 1 | -0.25 | 1.1 | 1.55 | -1.26 |
| Atf-2 + veg (retired record) | 1 | 0.6 | 1.05 | 2.05 | 0.51 |
| Atf-2 + veg (retired record) | 2 | -0.39 | 1.38 | -0.62 | 1.79 |
| Acat2 | 1 | 2.35 | 0.91 | -0.1 | -0.51 |
| dnk | 1 | -0.76 | -0.81 | 1.6 | -0.83 |
| Mapmodulin | 1 | 0.43 | -0.53 | 1.34 | -0.96 |
| Cdc7 | 1 | 0.36 | 0.01 | 2.47 | 0.04 |
| Cdc7 | 2 | -0.11 | 0.39 | 0.64 | -0.47 |
| Cdc7 | 3 | 0.88 | 0.03 | 0.23 | -0.27 |
| ND-B22 | 1 | -0.76 | -1.5 | -0.83 | -1.03 |
| Non3 | 1 | -0.53 | -0.16 | -0.06 | -1.6 |
| Spt3 | 1 | 0.38 | -0.87 | -0.97 | -1.81 |
| dj | 1 | 0.29 | -0.37 | -1.52 | -0.94 |
| ms(3)K81 | 1 | 1.32 | -0.06 | 1.77 | -0.12 |
| CG34384 | 1 | 0.43 | -0.47 | 1.01 | 0.82 |
| CG34384 | 2 | -0.25 | 2.09 | 0.87 | -0.85 |
| CG34384 | 3 | -1.11 | 0.27 | -0.96 | 0.42 |
| CG34384 | 4 | 0.2 | -0.23 | -1.26 | 0.13 |
| CG34384 | 5 | 0.79 | -0.14 | -0.04 | 0.11 |
| Argl + CG9515 | 1 | 0.48 | 0.18 | 0.73 | -0.25 |
| Argl + CG9515 | 2 | -0.48 | 0.11 | -0.14 | 1.01 |
| Son | 1 | 1.17 | 0.49 | 0.28 | -0.3 |
| CG15219 | 1 | 0 | 0.19 | -1.4 | 0.66 |
| CG7646 | 1 | -0.26 | -0.26 | 0.55 | 0.99 |
| Srrm1 | 1 | -0.5 | 0.08 | -0.31 | 1.3 |
| Lpt | 1 | 1.06 | -0.87 | -0.12 | -0.55 |
| Lpt | 2 | 0.16 | 0 | -0.66 | -0.47 |
| Oseg4 | 1 | -0.27 | -0.2 | -0.08 | 1.02 |
| CG5065 | 1 | 0.8 | 0.51 | 0.71 | 0.32 |
| eIF2Bbeta | 1 | 0.18 | 1.1 | -1.45 | -0.55 |
| Btk | 1 | 0.79 | 0.31 | 0.72 | -0.09 |
| Btk | 2 | 0.75 | 0.08 | 0.04 | -0.45 |
| Btk | 3 | 0.3 | -1.53 | -0.38 | -0.79 |
